PMC5651913, “Photosensing and Thermosensing by Phytochrome B Require Both Proximal and Distal Allosteric Features within the Dimeric Photoreceptor” (Scientific Reports, 2017)
These are yes or no findings as the source states them, for the method shown. Blank lines part the entries; values can stand above or below the substance they belong to.

Protein sequences, listed by entry. Tags and fused reporters are not part of them. Lines headed by an entry give the natural chain unless they say otherwise; changes in a name come on top.
UniProt P14713: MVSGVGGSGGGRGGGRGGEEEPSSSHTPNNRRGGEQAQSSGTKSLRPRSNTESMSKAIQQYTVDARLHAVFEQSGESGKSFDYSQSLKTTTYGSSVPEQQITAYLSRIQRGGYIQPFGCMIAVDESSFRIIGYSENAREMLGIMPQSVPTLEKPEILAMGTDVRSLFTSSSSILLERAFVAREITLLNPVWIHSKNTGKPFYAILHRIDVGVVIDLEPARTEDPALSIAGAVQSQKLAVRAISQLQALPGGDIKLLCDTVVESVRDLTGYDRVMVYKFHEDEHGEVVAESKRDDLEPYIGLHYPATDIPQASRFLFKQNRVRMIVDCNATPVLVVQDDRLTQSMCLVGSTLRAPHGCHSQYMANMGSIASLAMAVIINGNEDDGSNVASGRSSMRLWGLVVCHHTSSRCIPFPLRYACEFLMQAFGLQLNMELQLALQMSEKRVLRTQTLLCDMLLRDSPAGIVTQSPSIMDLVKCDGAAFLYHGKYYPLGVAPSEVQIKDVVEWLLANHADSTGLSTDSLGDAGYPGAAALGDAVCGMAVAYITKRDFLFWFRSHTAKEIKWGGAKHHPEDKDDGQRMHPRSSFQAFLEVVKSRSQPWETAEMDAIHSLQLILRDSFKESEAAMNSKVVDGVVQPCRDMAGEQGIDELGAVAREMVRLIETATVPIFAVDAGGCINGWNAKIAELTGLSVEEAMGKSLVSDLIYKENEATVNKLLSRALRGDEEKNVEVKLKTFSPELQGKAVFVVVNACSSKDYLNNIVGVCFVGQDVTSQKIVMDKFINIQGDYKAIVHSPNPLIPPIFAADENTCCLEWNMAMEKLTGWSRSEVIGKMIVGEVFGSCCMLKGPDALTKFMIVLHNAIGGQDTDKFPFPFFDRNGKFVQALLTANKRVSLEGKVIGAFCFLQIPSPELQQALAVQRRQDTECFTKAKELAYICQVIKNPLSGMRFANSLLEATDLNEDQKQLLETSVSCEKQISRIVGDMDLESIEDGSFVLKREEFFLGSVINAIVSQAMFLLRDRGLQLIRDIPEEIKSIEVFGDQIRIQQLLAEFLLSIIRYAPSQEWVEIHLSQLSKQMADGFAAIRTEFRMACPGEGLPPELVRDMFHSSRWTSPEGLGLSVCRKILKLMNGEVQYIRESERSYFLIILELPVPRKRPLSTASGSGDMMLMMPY

Tests used:
[1] = biological target: Arabidopsis thaliana PhyB 1–450 fragment assembled with PΦB (Arabidopsis thaliana) (UniProt P14713); experiment: SEC; Superdex 200 HR 10/30, 10 °C, 150 mM KCl, 50 mM HEPES-NaOH pH 7.8, 0.3 mM TCEP; samples as Pr at 0.6 mg/ml; apparent mass from size standards; monomer to dimer; both purified
[2] = biological target: Arabidopsis thaliana PhyB 1–450 fragment assembled with PΦB (Arabidopsis thaliana) (UniProt P14713); experiment: SEC; Superdex 200 HR 10/30, 10 °C, 150 mM KCl, 50 mM HEPES-NaOH pH 7.8, 0.3 mM TCEP; samples as Pr; solution size against chromoprotein concentration (a series of concentrations); monomer to dimer or higher oligomer; both purified
[3] = biological target: Arabidopsis thaliana PhyB 1–624 fragment assembled with PΦB (Arabidopsis thaliana) (UniProt P14713); experiment: SEC; Superdex 200 HR 10/30, 10 °C, 150 mM KCl, 50 mM HEPES-NaOH pH 7.8, 0.3 mM TCEP; samples as Pr at 0.6 mg/ml; apparent mass from size standards; monomer to dimer; both purified
[4] = biological target: Arabidopsis thaliana PhyB 1–624 fragment assembled with PΦB (Arabidopsis thaliana) (UniProt P14713); experiment: SEC; Superdex 200 HR 10/30, 10 °C, 150 mM KCl, 50 mM HEPES-NaOH pH 7.8, 0.3 mM TCEP; samples as Pr; solution size against chromoprotein concentration (a series of concentrations); monomer to dimer or higher oligomer; both purified
[5] = biological target: Arabidopsis thaliana PhyB 1–908 fragment assembled with PΦB (Arabidopsis thaliana) (UniProt P14713); experiment: negative-stain single-particle EM; as Pr, fixed onto carbon films, stained with phosphotungstic acid; reference-free 2D class averages; low protein concentration; both purified

- binding [1]: no binding (tested: 0.6 mg/ml)
Substance: Arabidopsis thaliana PhyB 1–450 fragment assembled with PΦB (from UniProt P14713 1-450) (domain or fragment)
- binding [2]: no binding (tested: all concentrations tested)

- binding [3]: no binding (tested: 0.6 mg/ml)
Substance: Arabidopsis thaliana PhyB 1–624 fragment assembled with PΦB (from UniProt P14713 1-624) (domain or fragment)
- binding [4]: no binding (tested: all concentrations tested)

Substance: Arabidopsis thaliana PhyB 1–908 fragment assembled with PΦB (from UniProt P14713 1-908) (domain or fragment)
- binding [5]: no binding (condition: at low protein concentrations)
